Laboratory results: US5652340
The exact form of at least one protein or probe is not confirmed. Protein sequences can lack the tags named with them.

Target: T1, SATB1 80 kDa deltaSATB1 (bacterially produced) (Homo sapiens) (UniProt Q01826)
T1 sequence: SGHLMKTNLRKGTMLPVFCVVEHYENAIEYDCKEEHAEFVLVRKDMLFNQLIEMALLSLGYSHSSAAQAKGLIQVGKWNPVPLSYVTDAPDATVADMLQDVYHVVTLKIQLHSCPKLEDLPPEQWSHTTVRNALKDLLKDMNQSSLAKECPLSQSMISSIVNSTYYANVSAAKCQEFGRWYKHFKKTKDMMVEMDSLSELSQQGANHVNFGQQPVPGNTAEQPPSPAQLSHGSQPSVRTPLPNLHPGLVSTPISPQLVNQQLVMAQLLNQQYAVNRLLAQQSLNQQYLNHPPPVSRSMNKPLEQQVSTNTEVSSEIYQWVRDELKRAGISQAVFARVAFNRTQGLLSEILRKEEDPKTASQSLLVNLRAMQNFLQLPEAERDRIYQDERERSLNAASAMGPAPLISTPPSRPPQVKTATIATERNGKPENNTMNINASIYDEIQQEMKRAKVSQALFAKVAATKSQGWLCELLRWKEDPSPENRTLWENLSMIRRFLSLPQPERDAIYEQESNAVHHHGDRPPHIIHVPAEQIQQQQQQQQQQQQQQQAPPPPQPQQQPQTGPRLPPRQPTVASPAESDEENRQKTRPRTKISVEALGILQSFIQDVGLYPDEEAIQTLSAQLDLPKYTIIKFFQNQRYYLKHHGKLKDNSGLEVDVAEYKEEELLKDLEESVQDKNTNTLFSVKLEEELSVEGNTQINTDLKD
Assay: EMSA
Settings: purified recombinant protein; protein details: GST (pGEX-2T) removed by thrombin; label: 32P end-label

“TCTTTAATTTCTAATATATTTAGAATTC (double strand) [wild-type (25)7]” gave a koff of 0.3 min⁻¹.
